Binding data for two molecules are collected here from US20230279117A1.

Amino acid sequences for entries named in this document (tags omitted). A change or cut given only in a name is not applied to a line headed by its entry.
UniProt Q9NZQ7: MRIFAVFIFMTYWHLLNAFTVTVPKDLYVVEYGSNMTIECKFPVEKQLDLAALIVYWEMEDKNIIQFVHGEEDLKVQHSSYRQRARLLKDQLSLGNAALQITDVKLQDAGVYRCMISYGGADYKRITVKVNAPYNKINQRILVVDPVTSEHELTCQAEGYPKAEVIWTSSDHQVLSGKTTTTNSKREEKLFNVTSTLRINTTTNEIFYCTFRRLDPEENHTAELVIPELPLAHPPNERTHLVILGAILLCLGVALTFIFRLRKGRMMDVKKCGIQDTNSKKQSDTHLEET

Substitutions are numbered along the chain they refer to. These are yes or no findings as the source states them, for the method shown. Some results given as binding are weak or reduced against the parent protein; the word gives no strength.

This assay concerns the target human PD-L1-ECD/His (human) (UniProt Q9NZQ7). Nature of the assay: SPR, Fab. A general note: SPR reads the build-up and loss of mass on a sensor chip optically.

B1: hu333-4A2 Fab (Fab, not shown: a dimerising Fc or GST)
heavy (part 1 of 2): EVQLVESGGGLVQPGGSLRLSCAVSGFSLTSYGVHWVRQAPGKGLEWVAVIWAGGSTNYVDSVKGRFTISKDNAKNTVYLQMNSLRAEDTAVYYCAKPYGTSAMDYWGQGTLVTVSS
heavy (part 2 of 2): HHHHHH
light: DIQMTQSPSSLSASVGDRVTITCKASQDVGIVVAWYQQKPGKAPKLLIYWASIRHTGVPSRFSGSGSGTEFTLTISSLQPDDFATYYCQQYSNYPLYTFGQGTKVEIK
In the case of B1, the binding result is “binds”.

B2: hu333-4B2 Fab (Fab, not shown: a dimerising Fc or GST)
heavy (part 1 of 2): B1 heavy (part 1 of 2) with V60A, N73T, A74S
heavy (part 2 of 2): HHHHHH
light: B1 light
B2: the binding entry was “binds”.
